Binding signal data for 42 sequences are collected here from article PMC7819943, “Rice protein-binding microarrays: a tool to detect cis-acting elements near promoter regions in rice”.

Some of the results follow.

The target in the assay is T1, OsSMF1 (Oryza sativa, UniProt Q6ZLB0 1-436).
T1 sequence: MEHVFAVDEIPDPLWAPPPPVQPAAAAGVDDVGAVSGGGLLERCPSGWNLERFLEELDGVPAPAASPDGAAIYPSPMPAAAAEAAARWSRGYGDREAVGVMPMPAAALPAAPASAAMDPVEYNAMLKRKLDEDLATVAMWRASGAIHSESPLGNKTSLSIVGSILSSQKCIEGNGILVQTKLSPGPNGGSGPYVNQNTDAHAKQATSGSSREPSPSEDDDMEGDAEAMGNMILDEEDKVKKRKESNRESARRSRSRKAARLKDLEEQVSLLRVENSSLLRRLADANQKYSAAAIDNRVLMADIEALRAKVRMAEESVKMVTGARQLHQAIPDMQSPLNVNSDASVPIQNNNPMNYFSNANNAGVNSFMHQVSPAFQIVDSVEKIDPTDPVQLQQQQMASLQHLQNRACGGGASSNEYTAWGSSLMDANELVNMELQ
As to the kind of experiment: protein-binding microarray (RPBM); PBS, 2% BSA, 51.3 ng/ul salmon testes DNA, 50 uM zinc acetate, 200 nM TF, 25 C, 1 h; high values mean tight binding. The note with it: protein: recombinant; tags: N-terminal polyhistidine and DsRed monomer fusion (pET32a); chain copies: 2; label: CyDye5-dUTP incorporated in the synthesized complementary strand; 3' TTTTT single-stranded linker to array surface; dsDNA, one strand shown. Put shortly:
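Transcription factors were made in E. coli BL21-CodonPlus as N-terminal fusions to a polyhistidine tag and DsRed, then purified on Ni–NTA. After primer extension with Cy5-dUTP and blocking with 2% BSA, a custom Agilent array was exposed for 1 h at 25 °C to 200 nM protein in PBS, 2% BSA, salmon testes DNA and 50 µM zinc acetate. Washed arrays were scanned on an Axon 4000B, and the binding signal is per-feature fluorescence intensity in arbitrary units.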
“CGTCGTCCCTGCGCGTCTGTGACGTCTGCTGCTGACTCGTCGGAGTCACCTAGTGCAG”: the binding signal was 5340 fluorescence intensity (a.u.). The result for “TGAGACAATGATAACTTGGAACACTAGCTGTACCGTTAGACGGAGTCACCTAGTGCAG” reads 26800 fluorescence intensity (a.u.).

With “GGAGGACGACGTGTCCGAGCTGCAGTGGCGCCGCATGGTGCGGAGTCACCTAGTGCAG”, the binding signal was 8120 fluorescence intensity (a.u.). Consider “TCGCTTCCCTTCCCTCCTCACCTCTCCCGCGCGCGCGAGTCGGAGTCACCTAGTGCAG”, for which the binding signal is 32500 fluorescence intensity (a.u.). “AGCCTCTCCACTACCTCTCCCTCCACCTGTCGCCTAAACCCGGAGTCACCTAGTGCAG”: the binding signal was 3200 fluorescence intensity (a.u.). Regarding “CCCAACCGTCCTATATATGCCCAGGTCTCAAATGTCAGCTCGGAGTCACCTAGTGCAG”, the binding signal is 4040 fluorescence intensity (a.u.).

For “CCTGACCCACATGTCATTGACTCATATGGGTCCTCATATCCGGAGTCACCTAGTGCAG”, the binding signal was 4870 fluorescence intensity (a.u.).

With “GCACCTACACTGCTACACATCACTTCCTAATTGATTAAGCCGGAGTCACCTAGTGCAG”, the binding signal was 3180 fluorescence intensity (a.u.). The result for “GGGCTGGCGGCCGACGACGGCGCGGGCCGAAGGGAGGTGGCGGAGTCACCTAGTGCAG” reads 3330 fluorescence intensity (a.u.); that for “TGGGTAGTGATTACCCATACCCATGCCCATTTACCCATCACGGAGTCACCTAGTGCAG”, 3150 fluorescence intensity (a.u.); that for “ATAGTTTGACATCATCATGCCCTGCTGTCTGCTAGAACATCGGAGTCACCTAGTGCAG”, 5040 fluorescence intensity (a.u.). The figure for “GCGCCCACCGACGTCATCACGCTCCGCCCCAAGCACGGCCCGGAGTCACCTAGTGCAG” is 9150 fluorescence intensity (a.u.); for “GTTTTGCACCTTATTTGACATGTATGCACTGTTGTATATTCGGAGTCACCTAGTGCAG” it is 3160 fluorescence intensity (a.u.); for “TATCATGTTGGCCCAACACATCATACACGTAAGATCTGGCCGGAGTCACCTAGTGCAG” it is 8420 fluorescence intensity (a.u.). As to “ATTACATGAACCCCACCTGTCAGTGACACAAACATCCCACCGGAGTCACCTAGTGCAG”, the binding signal is 4040 fluorescence intensity (a.u.). The figure for “GTTCTCATCCCCTCTCACCGAGCCGAGGAGAGCCGAGCCACGGAGTCACCTAGTGCAG” is 3210 fluorescence intensity (a.u.); for “ATCCAATGGCTCAGATCGGTCCACGTTTCCCTCAGACTCGCGGAGTCACCTAGTGCAG” it is 3260 fluorescence intensity (a.u.). For “CGCTGGTGGTAGCTTTGCTGACTATAATAATGTCCATATACGGAGTCACCTAGTGCAG”, the binding signal is 3680 fluorescence intensity (a.u.). Turning to “ACATCATCCTCCAGTCACGTCGTCCTCCTCCACCTCGGGTCGGAGTCACCTAGTGCAG”, the binding signal was 25200 fluorescence intensity (a.u.). The figure for “ACTCCTACTTTTCAGTCAAGGAGGAAGAAGTGTCGAATTTCGGAGTCACCTAGTGCAG” is 21900 fluorescence intensity (a.u.).

With “TCACATCCGAGCTGAGCTCCTGACACAGTGACACTACTGGCGGAGTCACCTAGTGCAG”, the binding signal is 4310 fluorescence intensity (a.u.). Consider “TAGCAAAATCGTAAATAAAATTCAGCACTAGTCATATCCACGGAGTCACCTAGTGCAG”, for which the binding signal is 3660 fluorescence intensity (a.u.).

Consider “TTAGATAGCCGTAGATTACACCTCATCTCTCGCCACCTTACGGAGTCACCTAGTGCAG”, for which the binding signal was 5070 fluorescence intensity (a.u.). The figure for “TACTTACCCCTATCTTCATCATCGTCATCTGTATAACAAACGGAGTCACCTAGTGCAG” is 3260 fluorescence intensity (a.u.); for “CAGAACACTTCATAATATTACGTGATACTATATATTATTGCGGAGTCACCTAGTGCAG” it is 3160 fluorescence intensity (a.u.). The figure for “ACCATGTTCTAATGTGACACCCCGTTTTCCATGTGGAGAGCGGAGTCACCTAGTGCAG” is 4990 fluorescence intensity (a.u.); for “CGGGCGCACGTGTTTCATCCCTCTAATTCTGAATCCCCACCGGAGTCACCTAGTGCAG” it is 3440 fluorescence intensity (a.u.). The figure for “ATTGTTGAGGGGAATACCACGTGTGGTATTTGCAATATGCCGGAGTCACCTAGTGCAG” is 4370 fluorescence intensity (a.u.); for “TGTTCTGTGTTCGTGTTTGGGATTGGGCGCGGCGTGTGCCCGGAGTCACCTAGTGCAG” it is 12500 fluorescence intensity (a.u.). Regarding “ACCATCTCCCTGCGTGCGTTGGCAACCAAAGGAGATACCACGGAGTCACCTAGTGCAG”, the binding signal was 4070 fluorescence intensity (a.u.). The result for “TTATATTAAAAGAATTGCTGACTGTACTCCCACGTTTACTCGGAGTCACCTAGTGCAG” reads 16100 fluorescence intensity (a.u.); that for “CACCCGCCGCTGCTCTGCCTACTCGCCGGCCACCTCCTCACGGAGTCACCTAGTGCAG”, 3720 fluorescence intensity (a.u.). As to “GGTGGCCTCCCTTTCGTCTTCAACAAGGTTTGCGTCGGCGCGGAGTCACCTAGTGCAG”, the binding signal was 3450 fluorescence intensity (a.u.). The figure for “AGCCTCATCCGCTCCCTTGTCTCCATCATCACCGTCGCCACGGAGTCACCTAGTGCAG” is 3550 fluorescence intensity (a.u.). The result for “AGCGGCGGCTGCCACGTCCTCTACTGGATCGATAGATCGACGGAGTCACCTAGTGCAG” reads 13700 fluorescence intensity (a.u.); that for “ATAGTTGTGATTAGATTGTGACGTACACAATGAGTATGCACGGAGTCACCTAGTGCAG”, 5250 fluorescence intensity (a.u.); that for “AGGAGCACGGACACCACGGTGGCGGTGACGCTGTCGTCATCGGAGTCACCTAGTGCAG”, 6180 fluorescence intensity (a.u.). As for “CTCTTTCACTCGCTCACCTGCTCCATGCTCGTCCAGTACTCGGAGTCACCTAGTGCAG”, the binding signal was 3270 fluorescence intensity (a.u.). Regarding “CACACCACATCACACCGCACACCACACCGATCCCGACCAACGGAGTCACCTAGTGCAG”, the binding signal is 3230 fluorescence intensity (a.u.). Turning to “AATGCCCTAGCAAGGCCCACACGTGGCGCCTCCTCCTCCTCGGAGTCACCTAGTGCAG”, the binding signal is 13400 fluorescence intensity (a.u.). The result for “CTAGCTTTTCTAGATTCTTAGAAGCTGACTACCAACCAGCCGGAGTCACCTAGTGCAG” reads 3410 fluorescence intensity (a.u.); that for “ACCAGCCACGTAGGCGCCACGTCAGCTAAAACCGCCTTCACGGAGTCACCTAGTGCAG”, 19900 fluorescence intensity (a.u.).
